Measurements reported in PubChem BioAssay AID652259 (Drosophila RNAi Screening Center, 2013)

Aim: 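Identify new Wingless signalling regulators in fly cells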 (primary screen)
Cells: Drosophila clone 8 imaginal disc epithelial cells
Knock-down reagent: long dsRNA against Drosophila genes
Treatment: pathway stimulated by co-transfected Wingless expression plasmid
Read-out: 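Firefly luciferase from a tcf-site Wingless reporter, measured alongside co-transfected Renilla luciferase that tracks transfection; pathway stimulated by a Wingless plasmid; the firefly-to-Renilla ratio is not deposited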
Scale: firefly reporter light: higher = more Wg reporter light, before normalisation; Renilla control light: higher = more transfected or surviving cells
Active means: 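Strong candidates differ from their plate mean by at least two out of four per-plate statistical tests; weak candidates meet just one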
Calls: active = candidate regulator (raises or lowers reporter); inactive = not a candidate
In all, the deposit lists about 22,000 reagents; this is an unselected part of those that have a named target and a result. Over the whole deposit, 233 (1.1%) got an active call. 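Light values are raw, unnormalised plate reads; the ratio scores behind the reporter calls were not deposited.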 A plus sign joins genes that one reagent is predicted to hit. Not stated in the record: the amount of reagent, the time to read-out, the dose of the treatment.

target | dsRNA | reporter change call, replicate 1 | firefly reporter light, replicate 1 | firefly reporter light, replicate 2 | Renilla control light, replicate 1 | Renilla control light, replicate 2 | Call
betaTub65B | DRSC11393 | – | 1561 | 7840 | 1277 | 3665 | inactive
CG15747 | DRSC19713 | – | 2203 | 5114 | 644 | 1420 | inactive
bnb | DRSC20314 | – | 3552 | 7724 | 1353 | 2764 | inactive
CG10510 | DRSC11614 | – | 6600 | – | 2090 | – | inactive
Rab21 | DRSC20968 | – | 17653 | – | 10422 | – | inactive
CG6005 | DRSC15945 | – | 1796 | 6305 | 870 | 1667 | inactive
CG14572 | DRSC11733 | – | 16346 | – | 6013 | – | inactive
CG7420 | DRSC00704 | – | 6460 | – | 3184 | – | inactive
CG31759 | DRSC01230 | – | 13303 | – | 6754 | – | inactive
CG11470 | DRSC14313 | – | 7126 | – | 2900 | – | inactive
CG7406 | DRSC20042 | – | 14746 | – | 8228 | – | inactive
Cyp6g1 | DRSC07386 | – | 7499 | – | 2176 | – | inactive
CG7692 | DRSC10902 | – | 6471 | – | 2692 | – | inactive
OS9 | DRSC02700 | – | 2401 | 6278 | 656 | 2529 | inactive
asRNA:CR30267 + CG42260 | DRSC03953 | – | 15440 | – | 8567 | – | inactive
CG14143 | DRSC10146 | – | 3997 | – | 1765 | – | inactive
Sox15 | DRSC07555 | – | 5243 | – | 2009 | – | inactive
Ten-m | DRSC11664 | – | 17910 | – | 5433 | – | inactive
Ten-m | DRSC11882 | – | 16048 | – | 4774 | – | inactive
CG14416 | DRSC18639 | – | 18627 | – | 10136 | – | inactive
Osi12 | DRSC12177 | – | 17304 | – | 2163 | – | inactive
CG14711 + Zaf1 | DRSC14934 | – | 19648 | – | 4695 | – | inactive
Hr4 | DRSC18495 | Wg reporter activity raised | 30708 | – | 19520 | – | active
Hr4 | DRSC18599 | – | 14167 | – | 8292 | – | inactive
Hr4 | DRSC22269 | Wg reporter activity raised | 7.90e5 | 7.48e5 | 61730 | 60448 | inactive
Hr4 | DRSC22677 | – | 1.32e6 | 1.24e6 | 1.63e5 | 44147 | inactive
Myb | DRSC20260 | – | 1130 | 3207 | 557 | 1179 | inactive
ScpX | DRSC03430 | – | 11805 | – | 2312 | – | inactive
CG14642 | DRSC12228 | – | 5868 | – | 3105 | – | inactive
sbm | DRSC20185 | – | 17704 | – | 8982 | – | inactive
Send2 | DRSC01906 | – | 2400 | 9445 | 1145 | 3192 | inactive
GstE8 | DRSC06678 | – | 21282 | – | 5826 | – | inactive
D12 | DRSC03311 | – | 12440 | – | 4868 | – | inactive
CG9672 | DRSC20201 | – | 2178 | 5910 | 912 | 1361 | inactive
CG7720 | DRSC16306 | – | 3090 | 7558 | 2214 | 1522 | inactive
CG7720 | DRSC16307 | – | 3271 | – | 869 | – | inactive
CG10764 | DRSC06000 | – | 16803 | – | 5093 | – | inactive
CG7778 | DRSC03067 | – | 10055 | – | 4583 | – | inactive
CG42813 | DRSC15939 | – | 3286 | 7619 | 1332 | 2274 | inactive
Scamp | DRSC20286 | – | 17648 | – | 9933 | – | inactive
CG10657 | DRSC09768 | – | 5106 | – | 2312 | – | inactive
CG11899 | DRSC16656 | – | 6042 | – | 2386 | – | inactive
Eig71Ed | DRSC11151 | – | 8193 | – | 3723 | – | inactive
CG12516 | DRSC14524 | – | 8992 | – | 3740 | – | inactive
CG5726 | DRSC06946 | – | 19296 | – | 3373 | – | inactive
CG13297 | DRSC09971 | – | 1585 | 9060 | 1098 | 3002 | inactive
Cdc2rk | DRSC07590 | – | 2539 | 7571 | 731 | 2133 | inactive
CG34041 | DRSC22276 | – | 7.23e5 | 7.17e5 | 3.42e5 | 3.56e5 | inactive
Ankrd49 | DRSC01894 | – | 2355 | 4752 | 1235 | 2653 | inactive
Dtwd2 + Obp84a | DRSC12603 | – | 13865 | – | 4288 | – | inactive
CG42323 | DRSC19629 | – | 23114 | – | 11352 | – | inactive
CG42323 | DRSC21397 | – | 3.56e5 | 3.97e5 | 2.05e5 | 1.51e5 | inactive
CG33491 (retired record) + CG33496 (retired record) + CG33487 (retired record) + 1 more | DRSC22969 | – | 5.00e5 | 4.38e5 | 2.51e5 | 344 | inactive
CG11790 | DRSC14390 | – | 5059 | 10217 | 1072 | 1739 | inactive
Ldaf1 | DRSC17963 | – | 3121 | 6178 | 1613 | 2912 | inactive
MCPH1 | DRSC06309 | – | 16374 | – | 3313 | – | inactive
MCPH1 | DRSC07308 | – | 5788 | – | 2368 | – | inactive
MCPH1 | DRSC22536 | – | 5.40e5 | 5.82e5 | 1.61e5 | 1.60e5 | inactive
CG6937 | DRSC16140 | – | 10339 | – | 5787 | – | inactive
mRpS33 | DRSC14239 | – | 42172 | – | 7397 | – | inactive
CG31741 | DRSC02887 | – | 1581 | 4331 | 950 | 1922 | inactive
CG32099 | DRSC21352 | – | 3.38e5 | 4.70e5 | 1.70e5 | 1.80e5 | inactive
CG32407 | DRSC09789 | – | 1607 | 6544 | 1111 | 2919 | inactive
CG3734 | DRSC15509 | – | 14353 | – | 2165 | – | inactive
Skp2 | DRSC12329 | – | 6000 | – | 2922 | – | inactive
CG3246 | DRSC00584 | – | 3098 | 4338 | 721 | 1723 | inactive
Pdxk | DRSC10419 | – | 5817 | – | 2676 | – | inactive
tj | DRSC02011 | – | 2524 | 4082 | 738 | 1946 | inactive
CG31937 | DRSC00514 | – | 14343 | – | 5835 | – | inactive
MED14 | DRSC08235 | – | 9360 | – | 1960 | – | inactive
CG13385 | DRSC02259 | – | 2460 | 6485 | 754 | 3792 | inactive
Msh6 | DRSC10759 | – | 4145 | – | 2208 | – | inactive
Ubc6 | DRSC12370 | – | 8554 | – | 1872 | – | inactive

Just “firefly reporter light, replicate 1”, for 11 of the entries above:
Ten-m [DRSC11664] = 17910
Ten-m [DRSC11882] = 16048
CG14416 [DRSC18639] = 18627
Osi12 [DRSC12177] = 17304
CG14711 + Zaf1 [DRSC14934] = 19648
Hr4 [DRSC18495] = 30708
Hr4 [DRSC18599] = 14167
Hr4 [DRSC22269] = 7.90e5
Hr4 [DRSC22677] = 1.32e6
Myb [DRSC20260] = 1130
ScpX [DRSC03430] = 11805
